The record followed here is patent publication US20020028482A1, “NIP45 HUMAN HOMOLOG” (priority 1997, published 2002).

No constants are given. Whether binding was seen depends on the method and setting. Some entries that bind do so weakly or less than the wild type.

In this assay the target is T1, murine NFATp (mNFATp) (murine) (UniProt Q60591).
T1 sequence (looked up): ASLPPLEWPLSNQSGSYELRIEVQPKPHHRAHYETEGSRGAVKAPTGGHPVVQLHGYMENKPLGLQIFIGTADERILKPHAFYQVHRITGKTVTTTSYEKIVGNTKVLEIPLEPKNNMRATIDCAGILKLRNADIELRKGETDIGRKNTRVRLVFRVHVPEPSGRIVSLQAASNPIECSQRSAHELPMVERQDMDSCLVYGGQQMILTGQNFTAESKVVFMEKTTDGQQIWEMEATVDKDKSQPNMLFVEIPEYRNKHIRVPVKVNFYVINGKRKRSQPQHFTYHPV
The assay is described as follows: yeast two-hybrid, colonies.

B1: murine NIP45 (mNIP45) (protein)
chain: MAEPLRGRGPRSRGGRGARRARGARGRCPRARQSPARLIPDTVLVDLVSDSDEEVLEVADPVEVPVARLPAPAKPEQDSDSDSEGAAEGPAGAPRTLVRRRRRRLLDPGEAPVVPVYSGKVQSSLNLIPDNSSLLKLCPSEPEDEADLTNSGSSPSEDDALPSGSPWRKKLRKKCEKEEKKMEEFPDQDISPLPQPSSRNKSRKHTEALQKLREVNKRLQDLRSCLSPKQHQSPALQSTDDEVVLVEGPVLPQSSRLFTLKIRCRADLVRLPVRMSEPLQNVVDHMANHLGVSPNRILLLFGESELSPTATPSTLKLGVADIIDCVVLASSSEATETSQELRLRVQGKEKHQMLEISLSPDSPLKVLMSHYEEAMGLSGHKLSFFFDGTKLSGKELPADLGLESGDLIEVWG
As for B1, the binding entry is given as “binds”.
